Experimental data as given in paper PMC11054660.
These are yes or no findings as the source states them, for the method shown. Where a sequence is shown, tags or fusion partners need not be part of it.

Tests used:
[1] = molecular target: T1, T4 gp27 with a C-terminal 11xHis-tag (gp27-C), purified (bacteriophage T4), P17172; test: SEC-MALS; Superdex 200 increase 10/300 GL, 20 mM Tris-HCl pH 8, 150 mM NaCl, 0.5 mL/min; both purified; conditions: remark: other sources report otherwise
T1 chain: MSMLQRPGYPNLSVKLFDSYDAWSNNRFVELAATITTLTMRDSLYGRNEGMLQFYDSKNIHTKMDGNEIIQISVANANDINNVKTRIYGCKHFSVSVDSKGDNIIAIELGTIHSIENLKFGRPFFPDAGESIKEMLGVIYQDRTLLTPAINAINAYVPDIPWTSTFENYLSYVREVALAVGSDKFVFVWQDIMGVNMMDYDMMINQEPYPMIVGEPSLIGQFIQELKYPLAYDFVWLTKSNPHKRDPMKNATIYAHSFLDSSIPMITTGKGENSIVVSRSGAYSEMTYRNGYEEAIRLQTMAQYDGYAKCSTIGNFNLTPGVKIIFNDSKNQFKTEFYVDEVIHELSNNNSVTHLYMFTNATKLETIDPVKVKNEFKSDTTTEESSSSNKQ

[2] = molecular target: T2, T4 gp27 with an N-terminal 10xHis-tag (gp27-N), purified (bacteriophage T4), P17172; test: as above; conditions: remark: other sources report otherwise
T2 chain: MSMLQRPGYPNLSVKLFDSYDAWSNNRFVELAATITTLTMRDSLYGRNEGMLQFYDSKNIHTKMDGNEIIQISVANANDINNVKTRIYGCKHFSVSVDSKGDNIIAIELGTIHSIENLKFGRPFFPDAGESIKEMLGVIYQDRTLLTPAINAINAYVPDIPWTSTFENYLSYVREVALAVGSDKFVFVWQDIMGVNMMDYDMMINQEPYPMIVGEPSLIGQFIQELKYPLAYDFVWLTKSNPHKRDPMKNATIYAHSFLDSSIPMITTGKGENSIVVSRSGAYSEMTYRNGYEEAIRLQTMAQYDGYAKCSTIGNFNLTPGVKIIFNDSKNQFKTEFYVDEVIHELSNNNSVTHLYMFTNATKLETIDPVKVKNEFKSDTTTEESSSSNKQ

Row | Binder | binding [1] | binding [2]
1 | T4 gp27 with a C-terminal 11xHis-tag (gp27-C), purified, P17172 1-391 (protein) MSMLQRPGYPNLSVKLFDSYDAWSNNRFVELAATITTLTMRDSLYGRNEGMLQFYDSKNIHTKMDGNEIIQISVANANDINNVKTRIYGCKHFSVSVDSKGDNIIAIELGTIHSIENLKFGRPFFPDAGESIKEMLGVIYQDRTLLTPAINAINAYVPDIPWTSTFENYLSYVREVALAVGSDKFVFVWQDIMGVNMMDYDMMINQEPYPMIVGEPSLIGQFIQELKYPLAYDFVWLTKSNPHKRDPMKNATIYAHSFLDSSIPMITTGKGENSIVVSRSGAYSEMTYRNGYEEAIRLQTMAQYDGYAKCSTIGNFNLTPGVKIIFNDSKNQFKTEFYVDEVIHELSNNNSVTHLYMFTNATKLETIDPVKVKNEFKSDTTTEESSSSNKQ | no binding | –
2 | T4 gp27 with an N-terminal 10xHis-tag (gp27-N), purified, P17172 1-391 (protein) MSMLQRPGYPNLSVKLFDSYDAWSNNRFVELAATITTLTMRDSLYGRNEGMLQFYDSKNIHTKMDGNEIIQISVANANDINNVKTRIYGCKHFSVSVDSKGDNIIAIELGTIHSIENLKFGRPFFPDAGESIKEMLGVIYQDRTLLTPAINAINAYVPDIPWTSTFENYLSYVREVALAVGSDKFVFVWQDIMGVNMMDYDMMINQEPYPMIVGEPSLIGQFIQELKYPLAYDFVWLTKSNPHKRDPMKNATIYAHSFLDSSIPMITTGKGENSIVVSRSGAYSEMTYRNGYEEAIRLQTMAQYDGYAKCSTIGNFNLTPGVKIIFNDSKNQFKTEFYVDEVIHELSNNNSVTHLYMFTNATKLETIDPVKVKNEFKSDTTTEESSSSNKQ | – | no binding
